PubChem BioAssay AID1259405 – NCATS – 2018

- Purpose: 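Mouse-designed siRNAs used to find CHO productivity engineering targets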 (primary screen)
- System: Chinese hamster CHO-K1 ovary cells with stable secreted eGFP expression
- Reagents: single siRNA against mouse genes, 0.8 pmol siRNA per well (2 µl of 400 nM stock)
- Time to read-out: 3 days
- Measurement: 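Percent of the per-plate non-targeting control median for intracellular GFP per well by laser scanning cytometry and for cell viability by ATP luminescence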
- Scale: GFP, % of control: higher = more GFP per well, higher productivity; viability (ATP), % of control: higher = more viable cells (more ATP)
- Hit rule: 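Called active when intracellular GFP, relative to negative control, is at or above 120%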
Here is a random part of about 50,000 reagents tested. Over the whole deposit, about 4,000 (8%) were called active. 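Mouse siRNA library applied to hamster cells; one well for each siRNA.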 The numbers tell different reagents against one gene apart.

no.	gene symbol	reagent	GFP, % of control	viability (ATP), % of control	Call
1	Spata16	1	65.6	70.5	inactive
2	Spata16	2	78.4	49.6	inactive
3	Spata16	3	77.4	75.9	inactive
4	Faap24	1	89.8	83.3	inactive
5	Faap24	2	64.6	53.6	inactive
6	Faap24	3	123	136	active
7	Nrg3	1	79.6	57.2	inactive
8	Nrg3	2	74.6	49.3	inactive
9	Nrg3	3	67.7	36.5	inactive
10	Abcc5	1	85.2	55.2	inactive
11	Abcc5	2	95.8	59.9	inactive
12	Abcc5	3	25.9	69.9	inactive
13	Col11a2	1	90.6	64.5	inactive
14	Col11a2	2	128	105	active
15	Col11a2	3	57.6	42.5	inactive

4 entries from above, showing only “GFP, % of control”:
Nrg3 #2	74.6
Nrg3 #3	67.7
Abcc5 #1	85.2
Abcc5 #2	95.8

More records follow.
no.	gene symbol	reagent	GFP, % of control	viability (ATP), % of control	Call
16	Lrg1	1	104	51.7	inactive
17	Lrg1	2	55.7	72.5	inactive
18	Lrg1	3	78.9	78	inactive
19	Npm1	1	82.1	61.2	inactive
20	Npm1	2	76.1	81.2	inactive
21	Npm1	3	50.1	66.5	inactive
22	Or10al4	1	62	24.8	inactive
23	Or10al4	2	151	71.2	active
24	Or10al4	3	57.3	38	inactive
25	Mvb12b	1	45.8	49.4	inactive
26	Mvb12b	2	55.7	64.7	inactive
27	Mvb12b	3	86.5	121	inactive
28	Tnfaip8l1	1	70.8	74.2	inactive
29	Tnfaip8l1	2	35.5	24.8	inactive
30	Tnfaip8l1	3	86.6	60.1	inactive
31	Or4f60	1	103	89.5	inactive
32	Or4f60	2	107	76.6	inactive
33	Or4f60	3	65.3	78.9	inactive
34	Ift27	1	78.2	68.5	inactive
35	Ift27	2	121	114	active
36	Ift27	3	80.1	68.5	inactive
